# In all, about 320,000 compounds went through this assay and about 620 (0.19%) were called active. This list was built around the results that the source calls inconclusive (neither active nor inactive); the mix of calls is not that of the screen. Rule as the data show it: active = activation above about 80%; inconclusive = between about 30% and that limit; inactive = weaker than that.
# Amino acid sequences for entries named in this document (tags omitted).
# UniProt Q8NER1, whole entry, looked up: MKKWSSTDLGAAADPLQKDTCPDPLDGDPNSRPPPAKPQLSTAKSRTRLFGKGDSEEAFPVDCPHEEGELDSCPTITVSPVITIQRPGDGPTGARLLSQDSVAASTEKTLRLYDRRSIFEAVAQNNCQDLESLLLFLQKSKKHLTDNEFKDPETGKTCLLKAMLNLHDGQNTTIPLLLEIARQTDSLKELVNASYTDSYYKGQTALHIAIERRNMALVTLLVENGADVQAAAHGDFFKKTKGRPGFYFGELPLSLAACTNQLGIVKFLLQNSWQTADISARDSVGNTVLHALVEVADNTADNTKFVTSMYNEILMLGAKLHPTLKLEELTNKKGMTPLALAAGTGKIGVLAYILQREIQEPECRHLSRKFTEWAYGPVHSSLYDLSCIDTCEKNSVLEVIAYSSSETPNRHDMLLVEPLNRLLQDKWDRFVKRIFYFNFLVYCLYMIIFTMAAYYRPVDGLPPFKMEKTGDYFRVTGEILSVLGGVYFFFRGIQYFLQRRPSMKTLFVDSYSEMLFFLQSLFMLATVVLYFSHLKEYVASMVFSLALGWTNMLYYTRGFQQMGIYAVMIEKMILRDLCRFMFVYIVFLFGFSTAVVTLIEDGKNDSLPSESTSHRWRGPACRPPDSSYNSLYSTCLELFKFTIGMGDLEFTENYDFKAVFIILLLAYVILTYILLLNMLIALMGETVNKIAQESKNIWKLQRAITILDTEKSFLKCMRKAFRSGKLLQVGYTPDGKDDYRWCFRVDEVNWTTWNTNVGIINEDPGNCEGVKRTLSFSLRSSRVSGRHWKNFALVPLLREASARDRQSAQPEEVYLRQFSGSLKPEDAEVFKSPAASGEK
# Target: Transient receptor potential cation channel subfamily V member 1 (Homo sapiens) (UniProt Q8NER1)
# Test: HTS Assay for Compounds that Act as Agonists of the Vanilloid Receptor 1; also: 0% is about no effect
# Conditions: TRPV1-expressing cells, Fluo-8 calcium influx, agonist mode; at 8.33 µM, stronger effect = higher value
# How it was run: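 Fluo-8 calcium influx in TRPV1-expressing cells, kinetic read (ex 480/em 520 nm). Compound added and read 3 min for agonist activity, followed by capsaicin at EC20 final and 2 min further read for enhancement.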
row,Compound,activation
1,CCCCc1c(C)c(C#N)c2[nH]c3ccccc3n2c1=O,inconclusive: 53.4%
2,CC1=C(C(=O)OC(C)C)C(c2cccs2)C(C(=O)OC(C)C)=C(C)N1,inactive: 16.4%
3,CN(C(=O)c1ccno1)c1nnc(-c2ccccn2)s1,inactive: -3.11%
4,CC1CN(S(=O)(=O)c2ccc(C(=O)Nc3ccc(S(=O)(=O)N4CCOCC4)cc3)cc2)CC(C)O1 (stereo not given),inactive: -1.86%
5,CSc1nnc(NC(=O)c2ccc(S(=O)(=O)N(C)C)cc2)s1,inactive: 3%
6,CCc1cc2c(=O)c(-c3nc4ccccc4n3C)c(COCC(=O)O)oc2cc1OC(=O)C(C)(C)C,inactive: 1.26%
7,COc1ccccc1N(CC(=O)NCCSCc1ccc(C)cc1)S(=O)(=O)c1ccccc1,inactive: 18.8%
8,CC(=O)N1CCOc2cc(S(=O)(=O)NC(C)c3ccccc3)c(Cl)cc21 (stereo not given),inconclusive: 54.6%
9,CC(C)(Oc1ccc(Cl)cc1)C(=O)NCc1ccc(S(N)(=O)=O)cc1,inconclusive: 39.2%
10,O=C(CCN1C(=O)CSC1=O)Nc1ccc(Br)cc1,inconclusive: 70.2%
11,COc1cc(CNc2ccc3[nH]c(=O)[nH]c3c2)ccc1OCc1ccccc1Cl,inconclusive: 62.4%
12,O=C(NNC(=S)Nc1ccc(Br)cc1)c1ccccc1Br,inconclusive: 38.7%
13,CCN(CC(=O)Nc1c(F)cccc1F)C(=O)c1ccc(C(=O)c2ccccc2)cc1,inactive: 3.06%
14,Cc1ccc2nc(NC(=O)c3ccc(Br)o3)sc2c1,inconclusive: 70.8%
15,C[C@@]12C(=O)OC(=O)[C@]1(C)C1CCC2O1,inactive: 0.446%
16,CC(C)c1ccc(NC2CCCN(C(=O)c3ccnc(Cl)c3)C2)cc1 (stereo not given),active: 90.9%
17,CCCc1nc(-c2ccccc2)c(-c2ccc(OC)c(OC)c2)c(=O)[nH]1,inactive: 2.4%
18,CC(C)(C)NC(=O)NC(=O)COC(=O)CCC1CCCC1,inconclusive: 31.8%
19,CSc1nc2ccc(NC(=O)c3ccco3)cc2s1,inconclusive: 47.6%
20,Cc1cc(Cl)ccc1OCCCC(=O)NCCCn1ccnc1,inconclusive: 40.7%
21,O=C(CCSc1ccccc1)N1CCN(c2ccccc2)CC1,inconclusive: 42.7%
22,C/C(=N\NC(=S)NC(C)C)c1ccc2c(c1)OCCO2,inactive: 0.627%
23,CCC1(C)Cc2ccccc2-c2nc(NCCO)[nH]c(=O)c21 (stereo not given),inconclusive: 41.4%

row,Compound,activation
1,O=C(NCCNS(=O)(=O)c1ccccc1Cl)c1cc(OCC(F)(F)F)ccc1OCC(F)(F)F,inconclusive: 36.1%
2,CCOC(=O)C(=CNc1ccccc1N1CCOCC1)C(=O)OCC,inconclusive: 43.6%
3,CCOc1nc(-c2ccccc2)ccc1-c1noc(-c2ccco2)n1,inconclusive: 33.1%
4,O=C(c1cc(-c2ccc(Cl)cc2)n(-c2ccc(Cl)cc2)n1)N1CCOCC1,inconclusive: 66.6%
5,COc1cccc(-c2ccc(NC(=O)C3CCCN(CCCn4cccn4)C3)cc2)c1 (stereo not given),inactive: 4.12%
6,CCC1(C)Cc2ccccc2-c2nc(NCCCO)n(C)c(=O)c21 (stereo not given),inconclusive: 34.9%
7,CC1c2nc3ccccc3n2C(CC(=O)NC2CC2)C(=O)N1Cc1ccccc1 (stereo not given),inconclusive: 42.3%
8,Cc1cc(C)cc(C(=O)OCC(=O)NCc2cccs2)c1,inconclusive: 36.6%
9,O=C1S/C(=C\c2ccc(N3CCOCC3)o2)C(=O)N1c1ccccc1,inconclusive: 51.3%
10,CCOc1ccc(C(=O)CCC(=O)N(CC)CC(=O)NCc2ccc(Cl)cc2)cc1,inconclusive: 43.8%
11,CSc1nsc(SCC(=O)Nc2ccc(C(N)=O)cc2)n1,inconclusive: 30.7%
12,CC1CC(C)CN(C(=O)Nc2ccc(Br)cc2)C1 (stereo not given),inconclusive: 54.8%
13,O=C(NCCCn1ccnc1)c1ccc2ccccc2c1,inactive: 1.95%
14,COc1ccc(NC(=O)CSc2nccn2Cc2ccco2)cc1,inactive: 5.48%
15,O=C(Nc1ccncc1)Nc1cccc(C(F)(F)F)c1,inconclusive: 70.3%
16,S=C(NCCSCc1ccc(Cl)cc1)Nc1ccccc1,inconclusive: 65.1%
17,Cc1ccc(NS(=O)(=O)c2ccc(CCC(=O)N3CCOCC3)cc2)cc1,inconclusive: 31.2%
18,O=C(/C=C/c1ccc(Cl)cc1)N(Cc1ccccc1)C1CCS(=O)(=O)C1 (stereo not given),inactive: 7.46%
19,CC(=O)N1CCN(C(=S)NC(=O)c2c(-c3ccccc3Cl)noc2C)CC1,inactive: -1.64%
20,CC(CC(=O)N1CCc2ccccc21)c1ccccc1 (stereo not given),inconclusive: 31.6%
21,CN(/N=C/c1cc([N+](=O)[O-])ccc1O)c1ccccc1,inactive: -1.23%
22,CC1CCc2sc(C(=O)Nc3ccc(C(N)=O)cc3)cc2C1 (stereo not given),inconclusive: 40.4%
23,CS(=O)(=O)N1CCc2cc(C(=O)Nc3ccc(Cl)cc3)ccc21,active: 84.1%

row,Compound,activation
1,O=C(Nc1ccc(S(=O)(=O)N2CCc3ccccc32)cc1)c1ccc2c(c1)OCO2,inconclusive: 70.1%
2,O=C(Nc1ccc(-n2ccc(C(F)(F)F)n2)cc1)Nc1cccc(Cl)c1,inactive: 16.7%
3,CCc1ccc(NC(=O)NC2CCCCCCC2)cc1,inconclusive: 47.1%
4,O=C(COc1ccc(Cl)cc1)NNC(=O)c1ccccc1C(=O)O,inactive: 0.918%
5,CCOC(=O)[C@H]1[C@H]2COc3ccc(C)cc3[C@@H]2N2C(=O)c3cc(Cl)ccc3NC(=O)[C@@]12C,active: 81.8%
6,CCC(C)N1C(=O)S/C(=C/c2ccc(Sc3nc4ccccc4[nH]3)o2)C1=O (stereo not given),inconclusive: 69.3%
7,COc1ccc(S(=O)(=O)NCC(=O)N(CC(=O)NCC2CCCO2)c2c(C)cccc2C)cc1 (stereo not given),inactive: -1.04%
8,O=C(O)/C=C/C(=O)N1CCN(c2cccc(Cl)c2)CC1,inactive: -0.265%
9,CC(C)CCNC(=O)c1c[nH]c2ccc(S(=O)(=O)N3CCC4(CC3)OCCO4)cc2c1=O,inconclusive: 49.7%
10,COc1ccc(C2NC(=S)NC(C)=C2C(=O)N2CCOCC2)cc1 (stereo not given),inactive: -0.502%
11,O=c1c2ccc(Cl)cc2nc(-c2ccc([N+](=O)[O-])cc2)n1O,inconclusive: 54.6%
12,CC(C)C/C(O)=C/c1nc2cc(Cl)ccc2oc1=O,inactive: 0.99%
13,O=C(N/N=C\c1ccc(F)cc1)c1ccc(Cn2cc(Br)c([N+](=O)[O-])n2)o1,inconclusive: 38.3%
14,COc1ccc(OCCCC(=O)Nc2cccc([N+](=O)[O-])c2)cc1,inconclusive: 37.3%
15,CCn1nc(C(=O)N[C@@H](CCSC)c2nc3ccccc3[nH]2)c2ccccc2c1=O,inconclusive: 46.7%
16,CC(=O)Nc1ccc(/C=C/c2nc3ccccc3o2)cc1,inactive: 3.98%
17,Cc1ccc(-c2cc(C(=O)N3CC(C)CC(C)C3)c3ccccc3n2)o1 (stereo not given),inconclusive: 31.3%
18,CCCOc1ccc(C(=O)NC(=S)NNC(=O)c2c(-c3ccccc3)noc2C)cc1,inconclusive: 36.2%
19,C/C(=N/NC(=O)c1cc(-c2ccc(Br)s2)[nH]n1)c1ccco1,inactive: 1.05%
20,COCCNc1nc(C)cc(-c2cc(C(=O)NCc3ccccc3)on2)n1,inconclusive: 51.8%
21,O=C(Nc1ccccc1C(=O)N/N=C/c1ccco1)c1ccc(Cl)cc1,inconclusive: 39.5%
22,Cc1cccc(C2(c3cccc(C)c3)CC2C(=O)NCC2CCCO2)c1 (stereo not given),inconclusive: 69.5%
23,COc1ccc(OC)c(NC(=O)CCN2CCN(c3ccccc3OC)CC2)c1,inactive: 4.91%

# Laid out differently: 27 of the compounds above.
row | Compound | activation
17 | Cc1ccc(NS(=O)(=O)c2ccc(CCC(=O)N3CCOCC3)cc2)cc1 | inconclusive: 31.2%
18 | O=C(/C=C/c1ccc(Cl)cc1)N(Cc1ccccc1)C1CCS(=O)(=O)C1 (stereo not given) | inactive: 7.46%
19 | CC(=O)N1CCN(C(=S)NC(=O)c2c(-c3ccccc3Cl)noc2C)CC1 | inactive: -1.64%
20 | CC(CC(=O)N1CCc2ccccc21)c1ccccc1 (stereo not given) | inconclusive: 31.6%
21 | CN(/N=C/c1cc([N+](=O)[O-])ccc1O)c1ccccc1 | inactive: -1.23%
22 | CC1CCc2sc(C(=O)Nc3ccc(C(N)=O)cc3)cc2C1 (stereo not given) | inconclusive: 40.4%
23 | CS(=O)(=O)N1CCc2cc(C(=O)Nc3ccc(Cl)cc3)ccc21 | active: 84.1%
1 | O=C(Nc1ccc(S(=O)(=O)N2CCc3ccccc32)cc1)c1ccc2c(c1)OCO2 | inconclusive: 70.1%
2 | O=C(Nc1ccc(-n2ccc(C(F)(F)F)n2)cc1)Nc1cccc(Cl)c1 | inactive: 16.7%
3 | CCc1ccc(NC(=O)NC2CCCCCCC2)cc1 | inconclusive: 47.1%
4 | O=C(COc1ccc(Cl)cc1)NNC(=O)c1ccccc1C(=O)O | inactive: 0.918%
5 | CCOC(=O)[C@H]1[C@H]2COc3ccc(C)cc3[C@@H]2N2C(=O)c3cc(Cl)ccc3NC(=O)[C@@]12C | active: 81.8%
6 | CCC(C)N1C(=O)S/C(=C/c2ccc(Sc3nc4ccccc4[nH]3)o2)C1=O (stereo not given) | inconclusive: 69.3%
7 | COc1ccc(S(=O)(=O)NCC(=O)N(CC(=O)NCC2CCCO2)c2c(C)cccc2C)cc1 (stereo not given) | inactive: -1.04%
8 | O=C(O)/C=C/C(=O)N1CCN(c2cccc(Cl)c2)CC1 | inactive: -0.265%
9 | CC(C)CCNC(=O)c1c[nH]c2ccc(S(=O)(=O)N3CCC4(CC3)OCCO4)cc2c1=O | inconclusive: 49.7%
10 | COc1ccc(C2NC(=S)NC(C)=C2C(=O)N2CCOCC2)cc1 (stereo not given) | inactive: -0.502%
11 | O=c1c2ccc(Cl)cc2nc(-c2ccc([N+](=O)[O-])cc2)n1O | inconclusive: 54.6%
12 | CC(C)C/C(O)=C/c1nc2cc(Cl)ccc2oc1=O | inactive: 0.99%
13 | O=C(N/N=C\c1ccc(F)cc1)c1ccc(Cn2cc(Br)c([N+](=O)[O-])n2)o1 | inconclusive: 38.3%
14 | COc1ccc(OCCCC(=O)Nc2cccc([N+](=O)[O-])c2)cc1 | inconclusive: 37.3%
15 | CCn1nc(C(=O)N[C@@H](CCSC)c2nc3ccccc3[nH]2)c2ccccc2c1=O | inconclusive: 46.7%
16 | CC(=O)Nc1ccc(/C=C/c2nc3ccccc3o2)cc1 | inactive: 3.98%
17 | Cc1ccc(-c2cc(C(=O)N3CC(C)CC(C)C3)c3ccccc3n2)o1 (stereo not given) | inconclusive: 31.3%
18 | CCCOc1ccc(C(=O)NC(=S)NNC(=O)c2c(-c3ccccc3)noc2C)cc1 | inconclusive: 36.2%
19 | C/C(=N/NC(=O)c1cc(-c2ccc(Br)s2)[nH]n1)c1ccco1 | inactive: 1.05%
20 | COCCNc1nc(C)cc(-c2cc(C(=O)NCc3ccccc3)on2)n1 | inconclusive: 51.8%

# (continued)

row,Compound,activation
1,CCOC(=O)c1ccc(NC(=O)NCCc2ccccc2OC)cc1,inconclusive: 32%
2,COc1ccc(/C=N/NC(=O)c2ccoc2C)cc1COc1ccc(Cl)cc1,inactive: -3.77%
3,CC(NC(=S)Nc1c(Br)cccc1OC(F)F)C(C)(C)C (stereo not given),inactive: 14.6%
4,Cc1ccc(N/C=C/C(=O)c2ccccc2)cc1Br,inconclusive: 38%
5,CCCC(=O)c1cc2c(cc1NC(=O)c1cccs1)OCCO2,inconclusive: 35.6%
6,O=C(/C=C/Nc1ccc(F)cc1F)c1cccs1,inconclusive: 31.7%
7,CC(C)(C)c1ccc(C(=O)NNC(=O)c2cccc(-n3cnnn3)c2)cc1,inconclusive: 73.9%
8,CC(=O)c1ccc(NC(=O)c2ccc(CSc3ccccc3)o2)cc1,inconclusive: 59.1%
9,O=C(CSC1=NCCS1)Nc1ccc2ccccc2c1,inconclusive: 30.9%
10,CC(C)n1ncc2c(C(=O)Nc3ccc(CC#N)cc3)cc(C3CC3)nc21,inconclusive: 75%
11,O=C(COC(=O)c1cc(=O)[nH]c2ccc(Br)cc12)c1ccccc1,inactive: 0.64%
12,O=C(Cc1cccs1)NCc1ccccc1Br,inconclusive: 43.6%
13,O=C(CN1CCCC1)Nc1sc2c(c1C(=O)Nc1ccc(Br)cc1)CCC2,inactive: 15.7%
14,Cn1c(N)c(C(=O)COC(=O)/C=C/c2ccc(F)cc2)c(=O)n(C)c1=O,inactive: -2.25%
15,Cc1ccc(S(=O)(=O)N(C)c2ccc(OC(=O)c3ccc(=O)[nH]c3)cc2)cc1,inconclusive: 46.9%
16,COc1ccc(NC(=O)c2cccc(Oc3ccc([N+](=O)[O-])cc3Cl)c2)cc1,inconclusive: 33.9%
17,C=CCn1c(SCC(=O)c2cc(C)n(Cc3cccs3)c2C)nnc1-c1ccncc1,inactive: 1.01%
18,Clc1ccc(-c2cnc3n2CCC3)cc1,inconclusive: 57.5%
19,COCCC(=O)N1CCC(Oc2ccc(C(=O)N3C[C@@H]4CCC[C@H]3C4)cc2)CC1,inactive: 3.3%
20,CCOc1ccc2cc(C3CC(c4ccco4)=NN3S(=O)(=O)c3ccccc3)c(Cl)nc2c1 (stereo not given),inactive: -0.209%
21,COc1cccc(NC(=O)COC(=O)c2c3c(nc4ccccc24)CCC(C)C3)c1 (stereo not given),inconclusive: 35.5%

# From PubChem BioAssay AID540275 (National Center for Advancing Translational Sciences (NCATS), 2011)
